PubChem BioAssay AID504467 (National Center for Advancing Translational Sciences (NCATS), 2011)
Screen size: about 330,000 compounds; about 7,700 (2.3%) were called active. This list was built around the results that the source calls inconclusive (neither active nor inactive); the mix of calls is not that of the screen. Calls come from the whole dose curve; as a rule, active = well fitted inhibition curve with a large enough effect; inconclusive = small, poorly fitted or top-dose-only effect, or effect the other way; inactive = flat fitted curve, though single readings scatter. Where the call is inconclusive, the potency comes from a doubtful curve fit.

experiment: qHTS screen for small molecules that inhibit ELG1-dependent DNA repair in human embryonic kidney (HEK293T) cells expressing luciferase-tagged ELG1; conditions: HEK293T ELG1-luciferase reporter, luminescence, 16 h, DNA damage induced by 5-fluorouridine; series mostly up to 46.1 µM; note: nearly all actives have a fitted effect of over 55% in size
Outline: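 DMSO vehicle served as the neutral condition. Each well held 2,000 cells given 5-fluorouridine plus compound; after 16 hr at 37 °C/5% CO2, ONE-Glo was added and luciferase measured 30 min later.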
Potency is the fitted concentration of half-maximal effect.

Compound | Potency
CC(C)(CC(=O)N1CCN(c2ccc(Cl)cc2)CC1)CC1=NS(=O)(=O)c2ccccc2N1 | inconclusive: 25.9 µM [inhibitor, single point]
Cc1ccc(Nc2c(-c3ccccc3O)nc3cnccn23)cc1 | inconclusive: 1.83 µM [activator, full curve, poor fit]
Cc1ccccc1S(=O)(=O)Cc1ccc(C(=O)NC(C)c2ccc3c(c2)OCCO3)o1 (configuration not stated) | inconclusive: 2.91 µM [inhibitor, full curve, poor fit]
O=C(CC1Nc2ccccc2NC1=O)Nc1ccc2c(c1)OCO2 (configuration not stated) | inconclusive: 23.1 µM [activator, partial curve]
O=C(Nc1cc(Cl)ccc1Oc1ccccc1)c1ccccc1F | inconclusive: 25.9 µM [activator, single point]
Cc1cccc2cc(C#N)c(NCCNS(=O)(=O)c3ccc4c(c3)OCCO4)nc12 | inactive
CCC(=O)c1ccc(OC(C)C(=O)NC2(C#N)CCCCC2)cc1 (configuration not stated) | inactive
COC(=O)c1ccc(COC(=O)CNC(=O)C2CCCCC2)cc1 | inactive
O=C(O)c1cccc(N/N=C/c2ccc(F)c(F)c2)c1 | inconclusive: 0.184 µM [activator, full curve, poor fit]
COC(=O)c1ccc(C(=O)OC)c(NC(=O)CN(C)Cc2ccc(Cl)c(Cl)c2)c1 | inconclusive: 20.6 µM [inhibitor, partial curve, poor fit]
O=C(CN1CCCCCCC1)Nc1cccc(Cl)c1Cl | inactive
CCN(CC)S(=O)(=O)c1ccc(N2CCN(c3cccc(OC)c3)CC2)c([N+](=O)[O-])c1 | inconclusive: 11.6 µM [inhibitor, partial curve]
Cc1ccc(-c2nn3nnnc3c3ccccc23)cc1 | inactive
CCOC(=O)c1ccc(NC(=O)CSc2nc3sc(C(=O)O)c(C)c3c(=O)[nH]2)cc1 | inactive
C[C@H]1CN([C@@H](C)CO)C(=O)Cc2cc(NC(=O)Cc3ccccc3)ccc2O[C@H]1CN(C)S(=O)(=O)c1cccs1 | inactive
N#Cc1cccc(CN2CCC(=O)N([C@H](CO)Cc3ccccc3)CC2)c1 | inactive
c1ccc(-c2nnc(NC3=NCCC3)o2)cc1 | inconclusive: 1.46 µM [activator, full curve]
O=C(Nc1ccc(-n2nncc2-c2ccco2)cc1)c1cccc(F)c1 | inconclusive: 16.4 µM [inhibitor, partial curve, poor fit]
O=C(C(=O)N1CCCC1CO)N1CCCC1CO (configuration not stated) | inconclusive: 6.51 µM [inhibitor, single point]
O=C(c1cnn(C(=O)c2ccccc2F)c1)c1ccccc1O | inactive
COC(=O)c1[nH]c2ccc(F)cc2c1NS(=O)(=O)c1ccc(F)c(C)c1 | inactive
COc1ccc(C2CC(=O)n3nc(C45CC6CC(CC(C6)C4)C5)nc3S2)cc1OC (configuration not stated) | inconclusive: 4.11 µM [activator, full curve, poor fit]
CCCC1(c2ccccc2)NC(=O)N(CC(=O)Nc2sc(-c3ccccc3)cc2C(=O)OCC)C1=O (configuration not stated) | inconclusive: 23.1 µM [activator, single point]
CS(=O)(=O)N(CC(=O)Nc1ccc(S(=O)(=O)N2CCCC2)cc1)c1cccc(F)c1 | inactive

Not a retest: entries from further up.
Compound | Potency
COC(=O)c1[nH]c2ccc(F)cc2c1NS(=O)(=O)c1ccc(F)c(C)c1 | inactive
COc1ccc(C2CC(=O)n3nc(C45CC6CC(CC(C6)C4)C5)nc3S2)cc1OC (configuration not stated) | inconclusive: 4.11 µM [activator, full curve, poor fit]

Next compounds

Compound | Potency
Oc1ccccc1-c1nc(NCCN2CCOCC2)c2ccccc2n1 | inconclusive: 18.4 µM [inhibitor, partial curve]
CSCC[C@H](NC(=O)[C@@H]1Cc2ccccc2CN1)C(=O)Nc1ccc2c(c1)OCO2 | inconclusive: 13 µM [activator, partial curve]
CC(=O)N1CCc2cc(S(=O)(=O)NCCN3CCC(C)CC3)ccc21 | inactive
CCC(C(=O)NCCCN1CCN(C)CC1)n1nc(C)c2sc3ccccc3c2c1=O (configuration not stated) | inactive
CCC1CCCCN1C(=O)CCC(=O)Nc1nnc(C(F)(F)F)s1 (configuration not stated) | inactive
COc1ccc2[nH]c3c(c2c1)CCN1C(=O)C(CC(=O)NCCC2=CCCCC2)C[C@H](C(=O)N(C(C)C)C(C)C)[C@@]31C (some centres not stated) | inconclusive: 29.1 µM [inhibitor, single point]
O=C(N/N=C/c1c(Cl)cccc1Cl)c1ccccc1F | inconclusive: 20.6 µM [activator, single point]
Oc1cccc(/C=N/Nc2ccc(Cl)nn2)c1O | inconclusive: 6.51 µM [inhibitor, single point]
O=C(CSc1ccc(-c2ccco2)nn1)c1ccccc1 | inconclusive: 14.6 µM [activator, partial curve]
CC1CCN(S(=O)(=O)c2ccc(C(=O)Nc3nnc(-c4ccccn4)o3)cc2)CC1 | inconclusive: 14.6 µM [inhibitor, partial curve, poor fit]
Cc1noc(C)c1C(=O)OCC(=O)N1CCc2ccccc21 | inconclusive: 5.8 µM [activator, single point]
Cc1ccc2[nH]c(=O)c(CN(CC3CCCO3)C(=O)c3ccncc3)cc2c1 (configuration not stated) | inactive
CCOC(=O)CCNC(=O)N1CCCC(C(=O)c2cc(C)c(OC)c(C)c2)C1 (configuration not stated) | inactive
Cc1ccc(/C=C/C(=O)OCC(=O)Nc2cccc(S(=O)(=O)N(C)C)c2)o1 | inactive
Cc1ccc(S(=O)(=O)NCCC(=O)NNc2c(F)c(F)cc(F)c2F)cc1 | inactive
CCN(CC)C(CNC(=O)CSc1nnnn1-c1cccc(F)c1)c1ccco1 (configuration not stated) | inconclusive: 22.4 µM [activator, single point]
CCn1cc(C(=O)NCc2ccco2)c(=O)c2cc(S(=O)(=O)N3CCc4ccccc4C3)ccc21 | active: 10.3 µM
Brc1ccc2c(c1)OCCOCCOc1cc(Br)ccc1OCCOCCOCCO2 | active: 20.6 µM
CC(C)Cn1c(=O)[nH]c2ccccc21 | inactive
CCC(=O)Nc1cccc(-c2cn3cccc(C)c3n2)c1 | inconclusive: 14.6 µM [activator, partial curve]
Cc1cc(C(=O)NC2=NCCS2)c2ccccc2n1 | inactive
O=C(Nc1nc(-c2cccnc2)cs1)c1ccccc1F | inconclusive: 18.3 µM [activator, partial curve]
O=C1C2ON(c3ccc(Br)cc3)C(c3cccnc3)C2C(=O)N1C1CCCCC1 (configuration not stated) | inactive
